Results reported in PubChem BioAssay AID504467 (National Center for Advancing Translational Sciences (NCATS), 2011).
The campaign covered roughly 330,000 compounds. About 7,700 (2.3%) were called active. Inconclusive means that the source gave no clear call. Such entries were picked first, then a sample of the others. Calls follow the shape of the dose curve; as a rule, active = well fitted inhibition curve with a large enough effect; inconclusive = small, poorly fitted or top-dose-only effect, or effect the other way; inactive = flat fitted curve, though single readings scatter. Where the call is inconclusive, the potency comes from a doubtful curve fit.

Assay: qHTS screen for small molecules that inhibit ELG1-dependent DNA repair in human embryonic kidney (HEK293T) cells expressing luciferase-tagged ELG1; also: nearly all actives have a fitted effect of over 55% in size
Conditions: HEK293T ELG1-luciferase reporter, luminescence, 16 h, DNA damage induced by 5-fluorouridine; activity change, negative = inhibition: at 46.1 µM (top of the series)
How it was run: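 HEK293T cells expressing luciferase-tagged ELG1 (2,000/well) received 5-Fluorouridine plus compound or DMSO for 16 hr at 37 °C. Luciferase was read by ONE-Glo luminescence after 30 min at room temperature.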
% is scaled to controls: 0 for no effect and ±100 for the full control effect; potency is read from the fitted curve at half-maximal effect.

SMILES	Potency	activity change, negative = inhibition
Cc1ccc(S(=O)(=O)N2CCN(C(=O)c3c(-c4ccccc4)noc3C)CC2)c(C)c1	inconclusive: 16.4 µM [inhibitor, partial curve]	
CCC1(c2ccccc2)C(=O)N(C(=O)OC(C)(C)C)N1C(=O)OC(C)(C)C (stereo unspecified)		inactive: 12.1%
NC(=O)C1CCN(c2nc(-c3cccc(N)c3)cs2)CC1	inconclusive: 2.31 µM [activator, full curve]	
COc1ccccc1NC(=O)c1ccc([N+](=O)[O-])cc1[N+](=O)[O-]	inconclusive: 29.1 µM [inhibitor, single point]	
O=C(CCn1c(=S)oc2ccccc21)N1CCCCC1		inactive: 29.3%
Cc1ccc(S(=O)(=O)N2CCC(C(=O)Nc3ccccc3N3CCCC3)CC2)cc1C		inactive: -11.8%
CC(C)N(C(=O)CSc1nc2ccccc2c(=O)[nH]1)C(C)C	inconclusive: 23.1 µM [activator, single point]	
Cc1ccc2cc(CN(C)C(=O)C3CCCO3)c(=O)[nH]c2c1 (stereo unspecified)	inconclusive: 25.9 µM [activator, single point]	
O=C(Cc1ccccc1)N1CCCC(c2nc(-c3ccc(S(=O)(=O)N4CCCC4)cc3)no2)C1 (stereo unspecified)	inconclusive: 23.1 µM [inhibitor, partial curve]	
O=C(Cc1ccccc1)NNC1=NS(=O)(=O)c2ccccc21		inactive: 5.52%
O=[N+]([O-])c1cccc(-c2nnn(C34CC5CC(CC(C5)C3)C4)n2)c1		inactive: 14.3%
CC(=O)CSc1ncnc2c1cnn2-c1ccccc1	inconclusive: 3.26 µM [activator, full curve]	
Cc1ccsc1C(=O)OCC(=O)NCCC1=CCCCC1	inconclusive: 14.6 µM [activator, partial curve]	
CCc1cccc2cc3c(N)c(C(=O)Nc4ccc(S(=O)(=O)N5CCCC5)cc4)sc3nc12	inconclusive: 4.11 µM [inhibitor, partial curve, poor fit]	
COc1cc(C)ccc1OCc1cc(C(=O)N(C)CCCN2CCOCC2)no1	inconclusive: 18.3 µM [activator, partial curve]	
COc1cc(O)c(C(CCN2CCCCC2)c2ccc(N(C)C)cc2)c(OC)c1 (stereo unspecified)		inactive: 4.02%
CC(/C=N/NC(=O)c1ccc(Cn2cc([N+](=O)[O-])cn2)o1)=C\c1ccccc1	inconclusive: 9.2 µM [activator, partial curve]	
COc1cc(C(O)P(=O)(OC(C)C)OC(C)C)cc(OC)c1OC (stereo unspecified)	inconclusive: 9.2 µM [activator, partial curve]	
c1nc(N2CCOCC2)c2c3c(sc2n1)CCCC3	inconclusive: 29.1 µM [inhibitor, single point]	
c1ccc(-c2ccc(-c3csnn3)cc2)cc1	inconclusive: 13 µM [activator, partial curve]	
COc1ccc2nc(NCCNC(=S)NCCCN3CCOCC3)c(C#N)cc2c1	inconclusive: 0.651 µM [activator, full curve, poor fit]	
Cc1ccccc1C(=O)NC1CCN(CC(=O)NCc2cccs2)CC1	inconclusive: 1.46 µM [activator, full curve]	

SMILES	Potency	activity change, negative = inhibition
COc1cc(NC(=O)c2cc3c(Cl)nc4ccccc4c3s2)cc(OC)c1OC	active: 6.51 µM	
COc1ccc(NC(=O)CC2C(=O)N(c3cccc(C)c3)C(=O)N2C2CCCCC2)cc1 (stereo unspecified)	inconclusive: 8.2 µM [inhibitor, partial curve]	
COCCCn1c(=O)c2ccccc2n(Cc2ccc(C)cc2)c1=O	inconclusive: 29.1 µM [inhibitor, single point]	
CCC(C)NC(=O)C1CN(S(=O)(=O)c2ccccc2)CCN1S(=O)(=O)c1ccccc1 (stereo unspecified)	inconclusive: 16.4 µM [inhibitor, single point]	
CC(C)(C)C(=O)C(Cl)C(=O)Nc1ccccc1 (stereo unspecified)	inconclusive: 23.1 µM [activator, partial curve, poor fit]	
N=c1sccn1CC(=O)Nc1cccc(S(=O)(=O)N2CCCCCC2)c1	inconclusive: 16.4 µM [inhibitor, partial curve, poor fit]	
O=C(Nc1c(F)cc(F)cc1Br)c1cc(-c2ccco2)on1	inconclusive: 14.6 µM [activator, single point]	
CCCCC#Cc1ccc2c(c1)COc1c3ccccc3nn1-2	inconclusive: 2.59 µM [activator, partial curve]	
O=Cc1c[nH]c2cccc(OCc3ccccc3)c12	inconclusive: 0.82 µM [activator, partial curve, poor fit]	
O=C(CN(C(=O)c1csnn1)c1ccccc1Cl)NC1CCCCC1		inactive: 15.1%
COc1ccc(C2(O)CCN(C(=O)c3ccc4c(c3)OCO4)CC2)cc1	inconclusive: 29.1 µM [activator, partial curve, poor fit]	
COc1ccc(Cc2nnc(SCC(=O)c3ccc4c(c3)NC(=O)CO4)o2)cc1		inactive: 6.98%
COc1ccc(-c2nnn(CC(=O)N(Cc3ccccc3Cl)C(C(=O)NCC3CCCO3)c3ccco3)n2)cc1OC (stereo unspecified)	inconclusive: 20.6 µM [inhibitor, partial curve, poor fit]	
CCc1ccc(OCC(=O)OCC(=O)c2ccc3c(c2)NC(=O)CO3)cc1		inactive: 5.59%
Cc1nn(Cc2ccccc2)c(Cl)c1C(=O)NC(C)(C)C		inactive: -0.0712%
O=C(Nc1ccc(S(=O)(=O)N2CCCC2)cc1)c1ccc(Cl)nc1	inconclusive: 4.11 µM [inhibitor, single point]	
CC(C)N(C(=O)CSc1nnc(-c2cc3ccccc3cc2O)n1Cc1ccco1)C(C)C	inconclusive: 18.4 µM [inhibitor, single point]	
CCOC(=O)c1[nH]ncc1CN1CCCC(C(=O)c2cccc3ccccc23)C1 (stereo unspecified)		inactive: 7.24%
CCCN(C(=O)COC(=O)c1nc2nc(C)cc(C)n2n1)C1CCS(=O)(=O)C1 (stereo unspecified)		inactive: 6.25%
CC(C)CCNC(=O)C(=O)Nc1ccccc1	inconclusive: 10.3 µM [activator, partial curve]	
CCc1ccc(/C=C2\SC(N3CCCC3)=NC2=O)cc1		inactive: -14.1%
Cc1ccc(C)c(S(=O)(=O)N2CCN(C(=O)c3ccccc3Cc3ccccc3)CC2)c1	inconclusive: 4.61 µM [inhibitor, full curve, poor fit]	

SMILES	Potency	activity change, negative = inhibition
Cc1cc(=O)[nH]c(-c2cccs2)n1	inconclusive: 23.1 µM [activator, partial curve, poor fit]	
CN1CCN(C(=O)c2ccc(COc3ccc(C(C)(C)C)cc3)o2)CC1	inconclusive: 20.6 µM [activator, partial curve]	
CC(C)(C)c1oc(C(=O)O)cc1CN1CCOCC1		inactive: 0.629%
CC(=O)NC(=S)NNC(=O)CCc1ccccc1		inactive: -16.6%
CSc1nsc(SC)c1C(=O)N1CCN(S(=O)(=O)c2ccc(C)cc2)C1C(C)C (stereo unspecified)	active: 18.4 µM	
COC(CNC(=O)c1ccc2c3c(onc13)-c1ccccc1C2=O)OC	inconclusive: 3.66 µM [activator, partial curve]	
CCOC(=O)c1c(-c2ccccc2)n(C)c2ccc(O)cc12	inconclusive: 18.4 µM [inhibitor, partial curve, poor fit]	
Cc1cc(=O)oc2ccc(OCC(=O)NCc3ccco3)cc12	inconclusive: 16.4 µM [activator, partial curve, poor fit]	
CCCOC(=O)c1ccc(OCC(O)CN2CCN(C(=O)c3ccccc3)CC2)cc1 (stereo unspecified)	inconclusive: 29.1 µM [inhibitor, single point]	
O=C(Nc1cccc(S(=O)(=O)N2CCOCC2)c1)[C@@H]1CCCN1S(=O)(=O)c1ccc(Cl)cc1	inconclusive: 20.6 µM [inhibitor, single point]	
CCOCCCNC(=O)c1ccc(N2CC3CC(C2)c2cccc(=O)n2C3)c(NC(=O)Nc2cccc(OC)c2)c1 (stereo unspecified)	inconclusive: 9.2 µM [inhibitor, partial curve, poor fit]	
CNS(=O)(=O)c1ccc(CCC(=O)N2CCN(c3ccccc3OC)CC2)cc1	inconclusive: 11.2 µM [inhibitor, partial curve, poor fit]	
Cc1cccc(N2CSC3=C(C#N)C(c4ccc(C)o4)CC(=O)N3C2)c1 (stereo unspecified)	inconclusive: 18.4 µM [activator, single point]	
Cc1cccc2nc(CSc3ccc(Cl)cc3)cn12	inconclusive: 16.4 µM [activator, partial curve]	
CCOc1ccc(CN2CCNC(=O)C2CC(=O)NCCCOc2cccnc2)cc1 (stereo unspecified)		inactive: 14.3%
Cc1cccc(N2CCN(C(=O)c3cccc(S(=O)(=O)N4CCc5ccccc5C4)c3)CC2C)c1 (stereo unspecified)	inconclusive: 23.1 µM [inhibitor, single point]	
N#Cc1c(N2CCOCC2)nsc1-c1ccccc1	inconclusive: 20.6 µM [activator, partial curve]	
O=C(Nc1ncn[nH]1)c1ccc(Cl)c(S(=O)(=O)N2CCCCCC2)c1	inconclusive: 29.1 µM [activator, single point]	
O=C(NCC1CCCCC1)C1CCCN(C(=O)NC2CCCCC2)C1 (stereo unspecified)	inconclusive: 15.8 µM [inhibitor, partial curve]	
CN(C(=O)c1ccc(NC(=O)Cc2cccc(NC(=O)C3CCCN(C(=O)C4CCCCC4)C3)c2)cc1)C1CCCC1 (stereo unspecified)	inconclusive: 23.1 µM [inhibitor, single point]	
CC(C)(C)c1cc(C(=O)NNc2cc(C(F)(F)F)ccc2Cl)n(Cc2ccccc2)n1	inconclusive: 11.6 µM [inhibitor, partial curve]	
COc1ccccc1CC(=O)N(CCC#N)CCC#N	inconclusive: 23.1 µM [activator, single point]	

One compound at a time, from the list above.
`O=C(Nc1ncn[nH]1)c1ccc(Cl)c(S(=O)(=O)N2CCCCCC2)c1` in the list: Potency: inconclusive: 29.1 µM [activator, single point]
`Cc1cccc(N2CCN(C(=O)c3cccc(S(=O)(=O)N4CCc5ccccc5C4)c3)CC2C)c1` (stereo unspecified) in the list: Potency: inconclusive: 23.1 µM [inhibitor, single point]

In a second layout: results already given
SMILES | Potency | activity change, negative = inhibition
Cc1cc(=O)oc2ccc(OCC(=O)NCc3ccco3)cc12 | inconclusive: 16.4 µM [activator, partial curve, poor fit] | 
CCCOC(=O)c1ccc(OCC(O)CN2CCN(C(=O)c3ccccc3)CC2)cc1 (stereo unspecified) | inconclusive: 29.1 µM [inhibitor, single point] | 
O=C(Nc1cccc(S(=O)(=O)N2CCOCC2)c1)[C@@H]1CCCN1S(=O)(=O)c1ccc(Cl)cc1 | inconclusive: 20.6 µM [inhibitor, single point] | 
